Laboratory results as given in patent publication US9133271 (AbbVie / Abbott, dated 2015).
Substitutions are numbered along the chain they refer to. These are yes or no findings as the source states them, for the method shown. Some binding calls cover weakened binding; strength is not graded here. Values belong to the binder of their own block, whether it stands above or below them.

Sequences of proteins named here, by UniProt entry; tags and fusion partners are left off. A change or cut given only in a name is not applied to a line headed by its entry.
UniProt O88516: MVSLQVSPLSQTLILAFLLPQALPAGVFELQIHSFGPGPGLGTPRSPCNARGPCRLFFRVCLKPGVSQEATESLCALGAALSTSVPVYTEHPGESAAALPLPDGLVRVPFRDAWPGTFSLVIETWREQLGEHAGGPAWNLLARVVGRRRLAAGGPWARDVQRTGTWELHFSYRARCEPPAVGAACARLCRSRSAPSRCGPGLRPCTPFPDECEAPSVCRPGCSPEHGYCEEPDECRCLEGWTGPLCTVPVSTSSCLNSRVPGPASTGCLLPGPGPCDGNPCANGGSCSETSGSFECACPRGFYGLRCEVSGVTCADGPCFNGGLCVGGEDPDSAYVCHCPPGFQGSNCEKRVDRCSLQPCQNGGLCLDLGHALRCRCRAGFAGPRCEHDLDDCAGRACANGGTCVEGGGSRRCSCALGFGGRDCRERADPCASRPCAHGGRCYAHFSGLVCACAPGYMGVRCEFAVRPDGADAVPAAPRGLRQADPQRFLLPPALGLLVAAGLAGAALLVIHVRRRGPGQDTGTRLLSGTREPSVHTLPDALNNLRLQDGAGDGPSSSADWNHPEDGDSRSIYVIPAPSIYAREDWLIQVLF

Biological target: murine DLL3 on 293 cells (h293-mDLL3) (murine) (UniProt O88516)
Test: assay and form of the mouse antigen not given on the sheet; table of properties of humanized constructs

binding: binds
B1: hSC16.15 (antibody, V domains shown)
VH: QVQLVQSGAEVKKPGASVKVSCKASGYTFTRYWIHWIRQAPGQGLEWMGYINPTTVYTEFNQNFKDRVTMTRDTSTSTVYMELSSLRSEDTAVYYCARGGSNFFDYWGQGTTVTVSS
VL: AIQLTQSPSSLSASVGDRVTITCRASENIYYNLAWYQQKPGKAPKLLIYTANSLEDGVPSRFSGSGSGTDFTLTISSLQPEDFATYFCKQAYDVPPTFGGGTKLEIK

binding: binds
B2: hSC16.34 (antibody, V domains shown)
VH: QVQLVQSGAEVKKPGASVKVSCKASGYTFTNYGMNWVRQAPGQRLEWMGWINTYTGDPTYADDFKGRVTITRDTSASTAYMELSSLRSEDTAVYYCARIGGNSPSDYWGQGTTVTVSS
VL: DIQMTQSPSSLSASVGDRVTITCKASQSVSNDVAWYQQKPGKVPKLLIYYASNRYSGVPSRFSGSGSGTDFTLTISSLQPEDVATYFCQQDYSSPWTFGGGTKVEIK

binding: binds
B3: hSC16.56 (antibody, V domains shown)
VH: B2 VH with R44G, D57E, I70M, R72T, A76T, S84R, E89D, G101D, N102S, T113L
VL: EIVMTQSPATLSVSPGERATLSCKASQSVSNDVVWYQQKPGQAPRLLIYYASNRYTGIPARFSGSGSGTEFTLTISSLQSEDFAVYYCQQDYTSPWTFGQGTKLEIKR
